These are literature values, as cited in patent publication US20140066504A1, “ANALOGS AND PRODRUGS OF BUMETANIDE; COMPOSITIONS AND METHODS OF USE” (priority 2012, published 2014).

For this data set, the system named is rats.

Consider `NS(=O)(=O)c1cc(C(=O)O)c(NCc2ccco2)cc1Cl` [furosemide], for which the “effect on kainic acid status” value is “blocks kainic acid status”.
